# From the supplement of paper PMC4604168 (melanoma cell lines)
# The list shows a part of the results. Many values rest on one well or one pass, so single values are uncertain.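 Imaging used 1,536-well plates; nuclei positive for cleaved PARP by antibody were divided by total DNA-stained nuclei to yield the apoptosis fraction. Doses for screening kept most cells viable, and cell lines differ markedly in resting and induced cleaved-PARP levels.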
# Legend:
# Experiment in all cases: cleaved PARP positive nuclei fraction relative to DMSO control; melanoma cells; higher = more apoptosis
# Settings in all cases: library dose: low library concentration; 72 h
# [1] = system: MZ2-MEL
# [2] = system: MeWo
# [3] = system: RPMI7951
# [4] = system: RVH-421
# [5] = system: SkMel28
# [6] = system: SkMel2
# [7] = system: SkMel30
# [8] = system: SkMel5
# [9] = system: UACC257
# [10] = system: UACC62
# [11] = system: WM115
# [12] = system: WM1716
# [13] = system: WM1745
# [14] = system: WM3526
# [15] = system: WM3619
# [16] = system: WM451Lu
SMILES,cleaved PARP positive nuclei fraction [1] [%],cleaved PARP positive nuclei fraction [2] [%],cleaved PARP positive nuclei fraction [3] [%],cleaved PARP positive nuclei fraction [4] [%],cleaved PARP positive nuclei fraction [5] [%],cleaved PARP positive nuclei fraction [6] [%],cleaved PARP positive nuclei fraction [7] [%],cleaved PARP positive nuclei fraction [8] [%],cleaved PARP positive nuclei fraction [9] [%],cleaved PARP positive nuclei fraction [10] [%],cleaved PARP positive nuclei fraction [11] [%],cleaved PARP positive nuclei fraction [12] [%],cleaved PARP positive nuclei fraction [13] [%],cleaved PARP positive nuclei fraction [14] [%],cleaved PARP positive nuclei fraction [15] [%],cleaved PARP positive nuclei fraction [16] [%]
"CN(NC(=O)CC(=O)NN(C)C(=S)c1ccccc1)C(=S)c1ccccc1 + COc1cc2c(Oc3ccc4[nH]c(C)cc4c3F)ncnc2cc1OCCCN1CCCC1 [cediranib] (first compound 0.006 µM, partner dose 0.4 µM)",107,41,31.8,82.7,73.5,30.2,73.9,35.8,59.8,154,110,68,200,56.7,183,41.6
"CCCCCCCCCCCC1=C(O)C(=O)C=C(O)C1=O [Embelin] + CC(C)CCN1c2nc(Nc3cc(F)c(O)c(F)c3)ncc2N(C)C(=O)C1C [BID1870] (first compound 1.2 µM, partner dose 0.2 µM)",118,25.1,35,24,81,,13.2,68.5,94.8,151,67.7,83.5,109,82.2,147,49.5
"NCC(=O)Nc1ccc(-n2nc(C(F)(F)F)cc2-c2ccc3c(ccc4ccccc43)c2)cc1 + CN(NC(=O)CC(=O)NN(C)C(=S)c1ccccc1)C(=S)c1ccccc1 [STA4783] (first compound 1 µM, partner dose 0.006 µM)",72.6,179,103,69,113,116,129,123,76.9,58.9,131,162,194,225,176,172
"O=C(O)c1ccc(-c2c[nH]c3ncc(-c4ccccc4)cc23)cc1C1CCCC1 + Oc1nc(-c2ccc(C(F)(F)F)cc2)nc2c1CSCC2 [XAV939] (first compound 0.16 µM, partner dose 2 µM)",188,62.8,52.1,174,169,,102,111,203,87.6,212,155,346,161,212,62.2
"CN(C)S(=O)(=O)c1ccc2c(c1)/C(=C/c1cc3c([nH]1)CCCC3)C(=O)N2 + NCC(=O)Nc1ccc(-n2nc(C(F)(F)F)cc2-c2ccc3c(ccc4ccccc43)c2)cc1 [OSU03012] (first compound 0.4 µM, partner dose 1 µM)",113,695,103,107,151,192,259,140,142,168,79.2,79.7,93.4,112,98.7,184
"COc1cc2c(Oc3ccc4[nH]c(C)cc4c3F)ncnc2cc1OCCCN1CCCC1 [cediranib] + CCCCCCCCCCCC1=C(O)C(=O)C=C(O)C1=O [Embelin] (first compound 0.4 µM, partner dose 1.2 µM)",176,48.9,37,37.6,152,,464,49.6,92.9,99.7,116,145,116,122,162,55.2
"COc1cc2ncnc(Nc3ccc(Oc4ccccc4)cc3)c2cc1OC + Oc1nc(-c2ccc(C(F)(F)F)cc2)nc2c1CSCC2 [XAV939] (first compound 2 µM, partner dose 2 µM)",202,112,74.2,47.8,175,,31.6,86.4,170,141,75.4,101,127,71.3,89.9,57
"CN(NC(=O)CC(=O)NN(C)C(=S)c1ccccc1)C(=S)c1ccccc1 + O=C(Nc1ccccc1)c1cc([N+](=O)[O-])ccc1Cl [GW9662] (first compound 0.006 µM, partner dose 2 µM)",82.5,403,87.8,76.4,107,,50.7,110,63.1,277,81.9,147,175,31.4,256,22.3
"COc1ccc(-c2ccc3c(N4CCOCC4)nc(N4C[C@@H](C)O[C@@H](C)C4)nc3n2)cc1CO + CC(C)CCN1c2nc(Nc3cc(F)c(O)c(F)c3)ncc2N(C)C(=O)C1C [BID1870] (first compound 0.02 µM, partner dose 0.2 µM)",29.2,186,16.7,56,169,,222,65.7,260,165,231,259,103,69.1,96.9,162
"CCN(CC)CCCCNc1ncc2cc(-c3cc(OC)cc(OC)c3)c(NC(=O)NC(C)(C)C)nc2n1 + O=c1cc(-c2cccc3c2Sc2ccccc2S3)oc(N2CCOCC2)c1 [KU55933] (first compound 0.1 µM, partner dose 1 µM)",87.9,198,76.4,80.1,99.8,,321,53.4,158,31.6,66.8,65.4,114,81.9,97.2,540
"O=C(Nc1ccccc1)c1cc([N+](=O)[O-])ccc1Cl + CCCCCCCCCCCC1=C(O)C(=O)C=C(O)C1=O [Embelin] (first compound 2 µM, partner dose 1.2 µM)",304,49,33.9,45.6,125,,91.2,58.8,101,84.9,96.2,62.3,113,81.7,91.7,267
"NCC(=O)Nc1ccc(-n2nc(C(F)(F)F)cc2-c2ccc3c(ccc4ccccc43)c2)cc1 + COc1cc2c(Oc3ccc4[nH]c(C)cc4c3F)ncnc2cc1OCCCN1CCCC1 [cediranib] (first compound 1 µM, partner dose 0.4 µM)",203,1330,45.3,39.8,144,228,307,149,55.1,69.5,81.9,140,94.7,123,86.5,197
"CN(NC(=O)CC(=O)NN(C)C(=S)c1ccccc1)C(=S)c1ccccc1 + Oc1cc(-c2nc(-c3ccccc3)[nH]c2-c2ccncc2)ccc1Cl [L779450] (first compound 0.006 µM, partner dose 0.2 µM)",92.2,270,73.2,89.3,146,,77.7,60.6,91.9,185,177,93.5,523,80.2,121,53
"COC(=O)c1sccc1S(=O)(=O)Nc1ccc(Nc2ccccc2)cc1OC + c1cc(-c2cnn3cc(-c4ccc(OCCN5CCCCC5)cc4)cnc23)ccn1 [Dorsomorphin] (first compound 1 µM, partner dose 0.4 µM)",57.1,102,84.1,68.8,164,,14,102,92.2,48.4,55.3,119,98.8,139,80.4,73.1
"CN(C)S(=O)(=O)c1ccc2c(c1)/C(=C/c1cc3c([nH]1)CCCC3)C(=O)N2 + O=C(O)c1ccc(-c2c[nH]c3ncc(-c4ccccc4)cc23)cc1C1CCCC1 [GSK650394] (first compound 0.4 µM, partner dose 0.16 µM)",102,236,169,96.9,76.9,58.6,276,138,59.8,147,136,93.7,89.5,46.5,80.9,30.9
"O=C(Nc1ccccc1)c1cc([N+](=O)[O-])ccc1Cl + COc1cc2ncnc(Nc3ccc(Oc4ccccc4)cc3)c2cc1OC [SrcI1] (first compound 2 µM, partner dose 2 µM)",183,70.5,66.1,18.6,120,,93,18.1,80.1,34.7,123,93.9,130,83.5,96.1,136
"O=C(O)C(=O)Nc1sc2c(c1C(=O)O)CCNC2 + O=C1NC(=O)/C(=C/c2ccc(-c3ccc(F)cc3O)o2)S1 [AS252424] (first compound 1.66667 µM, partner dose 1 µM)",155,55.7,179,30.4,104,,14,75.5,110,87.7,45.9,180,119,30.9,92.3,161
"COc1ccc(COc2ccc(Cc3cnc(N)nc3N)cc2OC)cc1 + O=C(O)C(=O)Nc1sc2c(c1C(=O)O)CCNC2 [TCS401] (first compound 1 µM, partner dose 1.66667 µM)",82.5,75.2,93.9,151,122,,41.3,87.6,75.2,47.4,202,99.8,127,375,127,49.2
"NCC(=O)Nc1ccc(-n2nc(C(F)(F)F)cc2-c2ccc3c(ccc4ccccc43)c2)cc1 + N#Cc1c(O)c2c(-c3ccc(-c4ccccc4O)cc3)csc2[nH]c1=O [A769662] (first compound 1 µM, partner dose 2 µM)",50.8,242,85.1,106,78.9,,874,153,154,308,71.4,76,99.7,115,120,104
"O=C(O)c1ccc(-c2c[nH]c3ncc(-c4ccccc4)cc23)cc1C1CCCC1 + COc1cc2c(Oc3ccc4[nH]c(C)cc4c3F)ncnc2cc1OCCCN1CCCC1 [cediranib] (first compound 0.16 µM, partner dose 0.4 µM)",65.1,73.9,37,161,259,127,70.5,187,37.6,205,28.7,146,85,166,99,62

# Copied from the results shown (2 entries):
SMILES,cleaved PARP positive nuclei fraction [1] [%],cleaved PARP positive nuclei fraction [2] [%],cleaved PARP positive nuclei fraction [3] [%],cleaved PARP positive nuclei fraction [4] [%],cleaved PARP positive nuclei fraction [5] [%],cleaved PARP positive nuclei fraction [6] [%],cleaved PARP positive nuclei fraction [7] [%],cleaved PARP positive nuclei fraction [8] [%],cleaved PARP positive nuclei fraction [9] [%],cleaved PARP positive nuclei fraction [10] [%],cleaved PARP positive nuclei fraction [11] [%],cleaved PARP positive nuclei fraction [12] [%],cleaved PARP positive nuclei fraction [13] [%],cleaved PARP positive nuclei fraction [14] [%],cleaved PARP positive nuclei fraction [15] [%],cleaved PARP positive nuclei fraction [16] [%]
"COc1cc2ncnc(Nc3ccc(Oc4ccccc4)cc3)c2cc1OC + Oc1nc(-c2ccc(C(F)(F)F)cc2)nc2c1CSCC2 [XAV939] (first compound 2 µM, partner dose 2 µM)",202,112,74.2,47.8,175,,31.6,86.4,170,141,75.4,101,127,71.3,89.9,57
"CN(NC(=O)CC(=O)NN(C)C(=S)c1ccccc1)C(=S)c1ccccc1 + O=C(Nc1ccccc1)c1cc([N+](=O)[O-])ccc1Cl [GW9662] (first compound 0.006 µM, partner dose 2 µM)",82.5,403,87.8,76.4,107,,50.7,110,63.1,277,81.9,147,175,31.4,256,22.3
